{"source": "PubChem BioAssay AID1347426", "about": "(Functional Genomics Laboratory (NCATS/FGL), 2020)", "note": "The campaign covered roughly 31,000 sequences. About 1,400 (4.5%) were called active.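 How the source made its calls: active means median seed-adjusted z-score above 1 or below -1; inactive means the rest.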 The list shows a part of the results.", "data": [{"test": "Novel Modifiers of Survival Motor Neuron (SMN) Protein: Gene Identification via Genome-wide siRNA Screen;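 further: luminescence tracks full-length SMN protein made from the SMN2 reporter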", "details": "HEK293T SMN2-luciferase reporter, siRNA knockdown, 72 h; actives lie on both sides", "procedure,_shortened": "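HEK293T cells stably carrying an SMN2 promoter/splicing cassette–luciferase reporter were reverse-transfected with 1 pmol siRNA per well (druggable-genome library, 3 siRNAs per gene) and grown 72 h at 37 °C. Luminescence, normalized to negative-control siRNA and log10-transformed, was scored as MAD.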", "values": [{"sequence": "CAACCUUUCUAGAAGUAGATT against SNTG1", "median seed-adjusted z-score": "inactive: 0.167"}, {"sequence": "GGCUACCAAUAAAGAUACATT against LHCGR", "median seed-adjusted z-score": "inactive: -0.152"}, {"sequence": "CCGUUUCCCACUUAACCAATT against FRRS1", "median seed-adjusted z-score": "inactive: -0.4"}, {"sequence": "GAAUGAUACAUAGAAAAGATT against CAMK2N1", "median seed-adjusted z-score": "inactive: 0"}, {"sequence": "CCUCUAUUCUUGCUCCUGUTT against AOAH", "median seed-adjusted z-score": "inactive: -0.123"}, {"sequence": "UCCUGGAUGUUGAUCCUAATT against PSMC3", "median seed-adjusted z-score": "inactive: -0.701"}, {"sequence": "GGCUUGUCGCGAAUCUUCATT against G6PC3", "median seed-adjusted z-score": "inactive: -0.13"}, {"sequence": "CACUGCAAGUGGGUCAAUATT against ZDHHC19", "median seed-adjusted z-score": "inactive: 0.0354"}, {"sequence": "AACUCAGGCUGUACCUUGATT against MXD4", "median seed-adjusted z-score": "inactive: 0.688"}, {"sequence": "GCAUUUGAGCAUGAAAAUATT against VPS29", "median seed-adjusted z-score": "inactive: -0.408"}, {"sequence": "GCUCUAACUGAACAACUAATT against EHMT2", "median seed-adjusted z-score": "inactive: 0.295"}, {"sequence": "GAUAGACCUAAAUAGCACATT against GPR126", "median seed-adjusted z-score": "inactive: -0.243"}, {"sequence": "CCUUUAGUCAUAGAGCGUATT against ZNF642", "median seed-adjusted z-score": "inactive: 0.169"}, {"sequence": "GAUUCAUGCAUUGAUCACATT against UBE2Z", "median seed-adjusted z-score": "inactive: 0.0572"}, {"sequence": "GUACAAAGCCCAUGGAUUUTT against SPNS3", "median seed-adjusted z-score": "inactive: -0.00533"}, {"sequence": "GCAAUAUAUAUGGAGAGGATT against TRIM48", "median seed-adjusted z-score": "inactive: 0"}, {"sequence": "UUUACAAACUGGUAUGAUATT against AMY1A", "median seed-adjusted z-score": "inactive: 0.272"}, {"sequence": "CGUGUAUUCUUUCACUAAUTT against MFSD1", "median seed-adjusted z-score": "inactive: -0.0833"}, {"sequence": "CAAGUUCACUGUUCGUGAATT against ATP6V1C2", "median seed-adjusted z-score": "inactive: 0.2"}, {"sequence": "GAAAGACGAGCUUUACCUATT against GSK3A", "median seed-adjusted z-score": "inactive: 0.248"}, {"sequence": "GGAACGGCAUAGCCCUAGATT against SIGLEC5", "median seed-adjusted z-score": "inactive: -0.615"}, {"sequence": "GCUUCAUUAUUGGAAAUCUTT against SLC9A7", "median seed-adjusted z-score": "inactive: 0.349"}, {"sequence": "UACAAGUCCUCGCACCUAATT against KLF16", "median seed-adjusted z-score": "inactive: 0.461"}, {"sequence": "CGUUAGCAUCAAGACGAAATT against RFWD2", "median seed-adjusted z-score": "inactive: 0.662"}, {"sequence": "ACGUCUCUCCCAACACCAATT against KCNH2", "median seed-adjusted z-score": "inactive: 0.1"}, {"sequence": "GGCUCAGUCAUUUGACAAATT against RGS20", "median seed-adjusted z-score": "inactive: -0.34"}, {"sequence": "GAUCAAGUGACAUUGCUAATT against PPARA", "median seed-adjusted z-score": "inactive: 0.113"}, {"sequence": "AGACGAAACAGAUGGUUGATT against SPINK9", "median seed-adjusted z-score": "inactive: 0.392"}, {"sequence": "CAGUGUUAGUGCUAGUGAATT against SLC39A6", "median seed-adjusted z-score": "inactive: -0.262"}, {"sequence": "ACGGCGUGCUGAAAACAGATT against PRDX2", "median seed-adjusted z-score": "inactive: -0.359"}, {"sequence": "GCAAGGACCCUAUCUUUGATT against ILDR1", "median seed-adjusted z-score": "inactive: -0.318"}, {"sequence": "CAUUAAUGUGGGUGAUUUATT against TAF9", "median seed-adjusted z-score": "inactive: 0.829"}, {"sequence": "GGACUUACCUAGAGGAGGATT against ITPKA", "median seed-adjusted z-score": "inactive: -0.136"}, {"sequence": "CCAGGGAUUCUUCUGCUAUTT against LPPR2", "median seed-adjusted z-score": "inactive: 0.255"}, {"sequence": "GAUGGGCAAUUUACAGUCATT against EPHA7", "median seed-adjusted z-score": "inactive: -0.172"}, {"sequence": "GGAACACCUUUAGUCAUGATT against ZNF790", "median seed-adjusted z-score": "inactive: 0.245"}, {"sequence": "GGGUCUACGUGGAGCUCAATT against EPHB3", "median seed-adjusted z-score": "inactive: -0.407"}, {"sequence": "CACUCGAAAUUUUGAAGCATT against CHD4", "median seed-adjusted z-score": "inactive: 0.625"}, {"sequence": "GAAACUUCGUGAAUACUUUTT against CDYL", "median seed-adjusted z-score": "inactive: 0"}, {"sequence": "CGUGUUCCGAGAAAACGAATT against PLEKHM2", "median seed-adjusted z-score": "inactive: 0.593"}, {"sequence": "CAGUCUGUAUUGUAUGGUUTT against KCNA4", "median seed-adjusted z-score": "inactive: -0.634"}, {"sequence": "CUGCAAAUCCUGUAAGUCUTT against FXYD7", "median seed-adjusted z-score": "inactive: -0.0312"}, {"sequence": "GUACAACCACUGCUCCGAATT against SLC22A18", "median seed-adjusted z-score": "inactive: -0.654"}, {"sequence": "GGAGGAAAAGUGCUACGAATT against MEGF8", "median seed-adjusted z-score": "inactive: 0.0906"}, {"sequence": "ACUCGAAUCCAAACCCUCATT against SLC25A18", "median seed-adjusted z-score": "inactive: -0.0227"}, {"sequence": "AGAUGGACAUCUUGCAGUATT against HS1BP3", "median seed-adjusted z-score": "inactive: 0.418"}, {"sequence": "CAAUCCAACUAGUAGUUCATT against SP4", "median seed-adjusted z-score": "inactive: -0.088"}, {"sequence": "GGGUAUUCUGGGCAUGAAATT against NANS", "median seed-adjusted z-score": "active: -1.54"}, {"sequence": "UGACAGCAGUGAGUGCAAATT against ESM1", "median seed-adjusted z-score": "inactive: 0.141"}, {"sequence": "GGUGUUGUCCGUCUGCUCATT against THA1P", "median seed-adjusted z-score": "inactive: -0.509"}, {"sequence": "GGCUCUGCGAACAUCAAUATT against CLTC", "median seed-adjusted z-score": "inactive: -0.0662"}, {"sequence": "GAAUUAGCAGUGUACAUGATT against SLC30A10", "median seed-adjusted z-score": "inactive: 0.523"}, {"sequence": "GGCACUAAGUUUGACCGGATT against AQR", "median seed-adjusted z-score": "active: -1.56"}]}]}
